Measurements as given in article doi:10.1101/2020.12.31.425005 (bioRxiv, 2020).
These are yes or no findings as the source states them, for the method shown. Binding seen in cells or lysates may run through a third protein. A yes stands for co-enrichment or nearness to the bait. Other partners may have been found. A no says only that the protein was not detected with the bait. Where a sequence is shown, tags or fusion partners need not be part of it.

Biological target: YhcB fused to SPA-tag, chromosomally at the C-terminus (E. coli) (UniProt P0ADW3)
Assay: affinity purification with mass spectrometry

B1: YhcB fused to SPA-tag, chromosomally at the C-terminus (protein, UniProt P0ADW3 1-132)
chain: MTWEYALIGLVVGIIIGAVAMRFGNRKLRQQQALQYELEKNKAELDEYREELVSHFARSAELLDTMAHDYRQLYQHMAKSSSSLLPELSAEANPFRNRLAESEASNDQAPVQMPRDYSEGASGLLRTGAKRD
binding: no binding
